Reference: paper PMC11424591
These are yes or no findings as the source states them, for the method shown. In cells and extracts the contact can be indirect. Some results given as binding are weak or reduced against the parent protein; the word gives no strength.

The chains behind the UniProt entries cited, without tags or fusion partners.
UniProt Q99497: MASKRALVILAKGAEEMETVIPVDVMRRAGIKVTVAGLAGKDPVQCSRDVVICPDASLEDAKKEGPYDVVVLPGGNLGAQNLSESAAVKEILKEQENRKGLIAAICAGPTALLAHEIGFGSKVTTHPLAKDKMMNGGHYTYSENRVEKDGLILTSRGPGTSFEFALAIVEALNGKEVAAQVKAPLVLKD

Biological target: T1, EFCAB7 (human (endogenous in Hep3B)) (UniProt A8K855)
T1 sequence: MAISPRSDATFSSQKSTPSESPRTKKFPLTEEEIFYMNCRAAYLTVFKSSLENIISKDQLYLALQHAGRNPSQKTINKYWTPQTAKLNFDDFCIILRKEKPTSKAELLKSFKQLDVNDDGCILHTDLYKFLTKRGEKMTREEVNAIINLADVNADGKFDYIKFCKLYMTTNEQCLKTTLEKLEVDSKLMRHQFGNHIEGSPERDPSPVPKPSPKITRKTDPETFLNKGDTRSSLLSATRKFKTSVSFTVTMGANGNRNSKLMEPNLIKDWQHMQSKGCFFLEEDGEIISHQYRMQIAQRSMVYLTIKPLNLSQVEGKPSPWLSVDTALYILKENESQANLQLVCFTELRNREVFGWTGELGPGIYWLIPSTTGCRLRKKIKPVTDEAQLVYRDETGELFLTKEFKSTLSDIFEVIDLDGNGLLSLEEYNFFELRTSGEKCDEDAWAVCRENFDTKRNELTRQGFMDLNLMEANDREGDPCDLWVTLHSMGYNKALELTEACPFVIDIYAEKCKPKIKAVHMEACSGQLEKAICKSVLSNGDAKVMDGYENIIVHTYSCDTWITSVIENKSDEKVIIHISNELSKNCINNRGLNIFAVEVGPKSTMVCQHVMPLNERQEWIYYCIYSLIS
Experiment: co-IP; 2 mg total cell lysate of Hep3B cells in IP buffer (10 mM phosphate buffer, 120 mM NaCl, 2.7 mM KCl, 1% Nonidet P-40, 0.5% DOC, 0.1% SDS); anti-EFCAB7 antibody on protein A/G mix beads overnight; immunoblotting

binding: binds
Substance: PARK7 (from UniProt Q99497 1-189)
